Results: the supplement of paper PMC9135407
Where “and” joins values, the source holds several entries; their conditions need not be identical. Identical values can stand only once. Counter-ions that a name gives are not always drawn. ± gives the standard deviation of the averaged measurements. The list shows a part of the results. Baselines shift from plate to plate; read single values as rough.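 Primary human stellate myofibroblasts activated in culture; inactivation shown by regained lipid droplets. Readout: fraction of Hoechst-counted cells exceeding a per-plate Bodipy threshold, duplicate wells, each plate with DMSO negative and nortriptyline positive controls. Hits: control-normalized score beyond the plate's top-tenth-percentile nortriptyline wells, or among its three best wells. Final well concentrations unstated.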

Test system: primary human hepatic stellate cells (donor 1)
Test: percent Bodipy-positive cells; higher = more lipid droplet accumulation
Conditions: 48 h
[1] = library stock concentration: 10 mM
[2] = library stock concentration: 1 mM
[3] = library stock concentration: 3.33 mM

## Cc1ncc(CNC(=O)N(CCCl)N=O)c(N)n1 [Nimustine hydrochloride]
[1]
  percent Bodipy-positive cells: 25.5 ± 3%

## Cc1ncc(CNC(=O)N(CCCl)N=O)c(N)n1 [Nimustine]
[1]
  percent Bodipy-positive cells: 32.5 ± 17%

## CCCC(=O)N[C@H]1CCOC1=O [N-butyryl-L-Homoserine lactone]
[2]
  percent Bodipy-positive cells: 14 ± 2.2%

## C[C@H]1CCC/C=C/[C@@H]2C[C@H](O)C[C@H]2[C@H](O)/C=C/C(=O)O1 [Brefeldin A]
[3]
  percent Bodipy-positive cells: 62.5 ± 13%
[1]
  percent Bodipy-positive cells: 59.8% and 45.5%
Library stock concentration: 17.8 mM
  percent Bodipy-positive cells: 75.6 ± 1.4%

## COc1ccc(/C=C\c2cc(OC)cc(OC)c2)cc1 [cis-trismethoxy Resveratrol]
[2]
  percent Bodipy-positive cells: 38.7 ± 9.3%

## CNc1ccc(C(=O)CC(O)CCC(C)C2OC(=O)CC(O)CC(=O)CC(O)CC(O)CC(O)CC(O)CC3(O)CC(O)C(C(=O)OC)C(CC(O[C@@H]4O[C@H](C)[C@@H](O)[C@H](N)[C@@H]4O)/C=C/C=C/C=C/C=C/C=C/C=C/C=C/C2C)O3)cc1.COC(=O)C1C(O)CC2(O)CC(O)CC(O)CC(O)CC(O)CC(=O)CC(O)CC(=O)OC(C(C)CCC(O)CC(=O)c3ccc(N)cc3)C(C)/C=C/C=C/C=C/C=C/C=C/C=C/C=C/C(O[C@@H]3O[C@H](C)[C@@H](O)[C@H](N)[C@@H]3O)CC1O2 (some centres not stated) [Mepartricin]
[1]
  percent Bodipy-positive cells: 28.7 ± 7.8%

## COc1ccc2[nH]cc(CCN)c2c1 [5-Methoxytryptamine]
[1]
  percent Bodipy-positive cells: 5.8 ± 0.55%

## COc1ccc2[nH]cc(CCN)c2c1 [O-Methylserotonin hydrochloride]
[1]
  percent Bodipy-positive cells: 40.2 ± 12%

## C[N+]1(C)CCc2cc3c(cc2C1C1OC(=O)c2c1ccc1c2OCO1)OCO3 (single isomer, unassigned; (-)) [(-)-Bicuculline methobromide]
[1]
  percent Bodipy-positive cells: 12.1 ± 6%

## CC(=O)N[C@H]1[C@@H](O[C@@H]2O[C@H](CC(O)[C@H]3O[C@@H](n4ccc(=O)[nH]c4=O)[C@H](O)[C@@H]3O)[C@H](O)[C@H](O)[C@H]2NC(=O)/C=C/CC(C)C)O[C@H](CO)[C@@H](N)[C@@H]1O (some centres not stated) [Tunicamycin]
Library stock concentration: 7 mM
  percent Bodipy-positive cells: 21.9 ± 2.6%

## CC[C@H](C)[C@H]1O[C@]2(C=C[C@@H]1C)C[C@@H]1C[C@@H](C/C=C(\C)[C@@H](O[C@H]3C[C@H](OC)[C@@H](O[C@H]4C[C@H](OC)[C@@H](O)[C@H](C)O4)[C@H](C)O3)[C@@H](C)/C=C/C=C3\CO[C@@H]4[C@H](O)C(C)=C[C@@H](C(=O)O1)[C@]34O)O2.CO[C@H]1C[C@H](O[C@H]2[C@H](C)O[C@@H](O[C@@H]3/C(C)=C/C[C@@H]4C[C@@H](C[C@]5(C=C[C@H](C)[C@@H](C(C)C)O5)O4)OC(=O)[C@@H]4C=C(C)[C@@H](O)[C@H]5OC/C(=C\C=C\[C@@H]3C)[C@]54O)C[C@@H]2OC)O[C@@H](C)[C@@H]1O [Avermectin b1]
[1]
  percent Bodipy-positive cells: 16.6 ± 2%

## CC[C@H](C)[C@H]1O[C@]2(C=C[C@@H]1C)C[C@@H]1C[C@@H](C/C=C(\C)[C@@H](O[C@H]3C[C@H](OC)[C@@H](O[C@H]4C[C@H](OC)[C@@H](O)[C@H](C)O4)[C@H](C)O3)[C@@H](C)/C=C/C=C3\CO[C@@H]4[C@H](O)C(C)=C[C@@H](C(=O)O1)[C@]34O)O2.CO[C@H]1C[C@H](O[C@H]2[C@H](C)O[C@@H](O[C@@H]3/C(C)=C/C[C@@H]4C[C@@H](C[C@]5(C=C[C@H](C)[C@@H](C(C)C)O5)O4)OC(=O)[C@@H]4C=C(C)[C@@H](O)[C@H]5OC/C(=C\C=C\[C@@H]3C)[C@]54O)C[C@@H]2OC)O[C@@H](C)[C@@H]1O [Avermectin B1]
  percent Bodipy-positive cells: 8.74 ± 0.65%

## CC[C@H](C)[C@H]1O[C@]2(C=C[C@@H]1C)C[C@@H]1C[C@@H](C/C=C(\C)[C@@H](O[C@H]3C[C@H](OC)[C@@H](O[C@H]4C[C@H](OC)[C@@H](O)[C@H](C)O4)[C@H](C)O3)[C@@H](C)/C=C/C=C3\CO[C@@H]4[C@H](O)C(C)=C[C@@H](C(=O)O1)[C@]34O)O2.CO[C@H]1C[C@H](O[C@H]2[C@H](C)O[C@@H](O[C@@H]3/C(C)=C/C[C@@H]4C[C@@H](C[C@]5(C=C[C@H](C)[C@@H](C(C)C)O5)O4)OC(=O)[C@@H]4C=C(C)[C@@H](O)[C@H]5OC/C(=C\C=C\[C@@H]3C)[C@]54O)C[C@@H]2OC)O[C@@H](C)[C@@H]1O [Abamectin]
Library stock concentration: 2.3 mM
  percent Bodipy-positive cells: 5.62% and 30%

## CN1C2CCC1CC(OC(=O)c1cc(Cl)cc(Cl)c1)C2 (configuration not stated)
[1]
  percent Bodipy-positive cells: 65 ± 4%

## CO[C@H]1CC=C2CCN3CCC4=C(CC(=O)OC4)[C@]23C1 [Dihydro-beta-erythroidine hydrobromide]
[1]
  percent Bodipy-positive cells: 35.5 ± 8.3%

## C[C@]12CCC(=O)C=C1CC[C@@H]1[C@@H]2C(=O)C[C@]2(C)C(=O)CC[C@@H]12 [Adrenosterone]
  percent Bodipy-positive cells: 13 ± 7.6%

## C[N+]1(C)CCOC(O)(c2ccc(-c3ccc(C4(O)C[N+](C)(C)CCO4)cc3)cc2)C1 (configuration not stated) [Hemicholinium bromide]
  percent Bodipy-positive cells: 33.2 ± 3.3%

## C[N+]1(C)CCOC(O)(c2ccc(-c3ccc(C4(O)C[N+](C)(C)CCO4)cc3)cc2)C1 (configuration not stated) [Hemicholinium-3]
[1]
  percent Bodipy-positive cells: 51.9 ± 27%

## COc1ccc(-n2nc(C(F)(F)F)cc2-c2ccc(Cl)cc2)cc1
[1]
  percent Bodipy-positive cells: 5.95 ± 1.3%

## Nc1ccncc1 [4-Aminopyridine]
Library stock concentration: 53.1 mM
  percent Bodipy-positive cells: 20.8 ± 16%

## Nc1ccncc1 [Fampridine]
Library stock concentration: 21.3 mM
  percent Bodipy-positive cells: 23.2 ± 1%

## CN(C)Cc1c[nH]c2ccccc12 [Gramine]
  percent Bodipy-positive cells: 39.3 ± 12%
[3]
  percent Bodipy-positive cells: 9.19 ± 1.7%
[1]
  percent Bodipy-positive cells: 60.5 ± 9.3%

## C[C@@H]1O[C@@H](O[C@H]2C[C@@H](O)[C@]3(CO)C4C(CC[C@]3(O)C2)[C@@]2(O)CC[C@H](C3=CC(=O)OC3)[C@@]2(C)C[C@H]4O)[C@H](O)[C@H](O)[C@H]1O (some centres not stated) [Ouabain]
[1]
  percent Bodipy-positive cells: 94.44 ± 0.49%

## CCS(=O)(=O)Nc1cccc(C(=C2CCCCC2)c2cnc[nH]2)c1
[1]
  percent Bodipy-positive cells: 45.1 ± 3.7%

## C[C@]12CC[C@H]3[C@@H](CC[C@]4(O)C[C@@H](O)CC[C@]34C=O)[C@@]1(O)CC[C@@H]2C1=CC(=O)OC1 [Strophanthidin]
  percent Bodipy-positive cells: 68 ± 6%

## O=Cc1cn(Cc2ccc(Cl)cc2)c2ccccc12 [Oncrasin 1]
[1]
  percent Bodipy-positive cells: 14.3 ± 5.8%

## NCC(CS(=O)(=O)O)c1ccc(Cl)cc1 (configuration not stated) [Saclofen]
[1]
  percent Bodipy-positive cells: 7.81 ± 1.5%

## CC[C@@]1(O)C[C@H](O)c2c(cc3c(c2O)C(=O)c2c(O)ccc(O)c2C3=O)[C@H]1C(=O)OC [Rutilantinone]
[1]
  percent Bodipy-positive cells: 34.9 ± 4.1%
